{"sequences": {"note": "The chains behind the UniProt entries cited, without tags or fusion partners. Residues count along the entry.", "UniProt P15328, residues 25-234": "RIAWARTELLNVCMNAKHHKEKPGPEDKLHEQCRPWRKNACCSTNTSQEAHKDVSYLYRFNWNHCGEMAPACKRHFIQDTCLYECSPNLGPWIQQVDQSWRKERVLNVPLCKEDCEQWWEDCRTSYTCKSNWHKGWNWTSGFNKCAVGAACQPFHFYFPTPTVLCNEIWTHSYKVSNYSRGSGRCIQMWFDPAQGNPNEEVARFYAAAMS"}, "source": "patent CN111393528A", "binders": {"B1": {"name": "FR ScFv (靶向叶酸受体α的单链抗体) (scFv, not shown: small tags and cut ends)", "scFv": "QAQLLESGGGLVQPGGSLRLSCAASGFTFSSYAMSWVRQAPGKGLEWVSAISGSGGSTYYADSVEGRFTISRDNSKNTLYLQMNSLRAEDTAVYYCARRAVGRGWRFWGQGTMVTVSSGGGGSGGGGSGGGGSDIVLTQSPSASGTPGQRVTISCSGSSSNIGSNYVYWYQQLPGTAPKLLIYRNNQRPSGVSDRFSGSKSGTSASLAISGLRSEDEADYYCAAWDDSLSARVFGGGTKVDIKR"}}, "key": {"[1]": {"target": "FRα-GFP fusion expressed on CHO cells transiently transfected with pEGFPN1-FRα (UniProt P15328)", "assay": "cell immunofluorescence on CHO cells transfected with pEGFPN1-FRα"}, "[2]": {"target": "FRα-GFP fusion expressed on CHO cells transiently transfected with pEGFPN1-FRα (UniProt P15328)", "assay": "cell immunofluorescence on CHO cells transfected with pEGFPN1-FRα, rabbit anti-His + PE goat anti-rabbit IgG"}}, "note": "These are yes or no findings as the source states them, for the method shown. Some entries that bind do so weakly or less than the wild type.", "data": [{"binder": "B1", "values": [{"measurement": "binding", "setting": "[1]", "value": "binds"}, {"measurement": "binding", "setting": "[2]", "value": "binds"}]}]}
